39 compounds from PubChem BioAssay AID2685 (National Center for Advancing Translational Sciences (NCATS), 2010) can be followed below.

The list shows a part of the results. Further columns of the screen follow, without active or inactive calls. The list favours compounds with an active or inconclusive main result. The note in brackets gives the kind of curve behind each potency; many fits are weak.

This experiment is described as follows: qHTS Assay for Lipid Storage Modulators in Drosophila S3 Cells.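 For cell number change: cells counted by Cell Tracker Red CMTPX staining in the red channel.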 As to conditions: BODIPY lipid droplet fluorescence, 18-24 h; for cell number change: measured here: cell count max response, cells fed with added oleic acid. In short, it runs like this:
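Laser-scanning cytometry quantifies lipid droplet accumulation (500–530 nm total intensity; droplet/cell object ratio) in oleic acid-fed (400 uM added) Drosophila S3 cells treated with a concentration series. 20 uM Triacsin C defined 100% inhibition.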
For orientation: Quantitative high-throughput screening tests each substance at several concentrations.

[1] abbreviates: measured here: lipid fluorescence (Fed channel) AC50, cells fed with added oleic acid.
The mark [2] stands for this setting: measured here: cell number channel AC50, cells fed with added oleic acid.

Broadly, the AC50 is the concentration at which the activity in the assay is half-maximal.

Turning to `COc1cccc(/C=N/c2nc3ccccc3[nH]2)c1O`, the cell number change came out at 14%. Under setting [1], the AC50 was 29.1 µM [rising, single point].
With `Cc1cc(Cl)ccc1OCC(=O)N/N=C1\CC2C=CCC12` (configuration not stated), the cell number change was 27%. Moreover, under setting [1], the AC50 was 0.731 µM [rising, partial curve, poor fit].
Turning to `CCC1Oc2ccccc2N(CC(=O)NCc2cccs2)C1=O` (configuration not stated), the cell number change is 1.2%.
Regarding `O=C1c2ccccc2C(Nc2ccc(Cl)cn2)N1Cc1ccccc1` (configuration not stated), the cell number change was -17.5%. Further, under setting [1], the half-maximal activity concentration (AC50) is 18.4 µM [falling, single point].
Regarding `Cc1ccc(NC(=O)CSCC(=O)Nc2nnc(C3CC3)s2)cc1`, the AC50 under setting [1] was 8.2 µM [rising, partial curve, poor fit].
Take `CCN(CC)CCNCc1cc(Cl)ccc1OCc1ccccc1F`: the cell number change was determined as 32.9%. In addition, under setting [2], the AC50 is 0.82 µM [rising, partial curve]. For the same compound, under setting [1], the concentration at half-maximal activity (AC50) is 2.06 µM [rising, full curve, poor fit].
Turning to `CCc1ccc(NS(=O)(=O)c2ccc3oc(=O)ccc3c2)cc1`, the AC50 under setting [1] is 18.4 µM [falling, single point].
`Cc1ccc(C(=O)C[n+]2cc(-c3ccc(C)cc3)n3c2CCCCC3)cc1`: the cell number change is -45.9%. In addition, the half-maximal activity concentration (AC50) under setting [2] is 29.1 µM [falling, single point]. Also, under setting [1], the half-maximal activity concentration (AC50) is 25.9 µM [falling, single point].
`CCC1CCCCN1CCNC(=O)C1CCN(S(=O)(=O)c2c(C)noc2C)CC1` (configuration not stated): the cell number change came to 2.03%. In addition, the AC50 under setting [1] was 0.731 µM [falling, full curve, poor fit].
Take `N#Cc1cccc(CS(=O)(=O)c2ccc(Cl)cc2)c1`: the cell number change was -19.4%.
Take `CC(=O)N1c2ccc(S(=O)(=O)N(C)Cc3ccccc3)cc2CC1C` (configuration not stated): the cell number change was -9.14%. The AC50 under setting [1] was 5.17 µM [falling, single point].
Take `COc1cccc(NC(=O)CSc2nc3c(oc4ccccc43)c(=O)[nH]2)c1`: the cell number change is -43.6%. Moreover, the half-maximal activity concentration (AC50) under setting [2] is 0.731 µM [falling, full curve, poor fit]. Also, under setting [1], the concentration at half-maximal activity (AC50) was 18.4 µM [rising, single point].
`C=CCc1cc(S(=O)(=O)c2ccc(O)c(CC=C)c2)ccc1O`: the cell number change was -4.72%. Further, the AC50 under setting [1] was 29.1 µM [rising, single point].
For `CCC(=Cc1ccc(CC)cn1)CC`, the cell number change came to 3%. Under setting [1], the half-maximal activity concentration (AC50) was 29.1 µM [rising, single point].
For the compound `Clc1ccc(CNC2CCCC2)cc1`, the AC50 under setting [1] is 29.1 µM [falling, single point].
As for `CN(CC(=O)Nc1ccc(Cl)c(C(F)(F)F)c1)C(=O)c1cccnc1Sc1ccccc1`, under setting [2], the AC50 is 0.0184 µM [rising, full curve, poor fit].
Turning to `COc1ccc(S(=O)(=O)N2CCCCC2)cc1NC(=O)[C@@H]1CCCN1C(=O)c1cccs1`, the cell number change came out at 4.3%.
Regarding `Cc1noc(C)c1COC(=O)c1ccccc1Sc1ccccc1C#N`, the cell number change is -41.5%. The AC50 under setting [2] was 14.6 µM [falling, single point].
Turning to `O=C(Cc1c[nH]c2ccccc12)NCC(=O)Nc1ccc(F)c(F)c1F`, the cell number change worked out at 3.87%. Also, the concentration at half-maximal activity (AC50) under setting [1] is 6.51 µM [falling, single point].
With `Cc1oc(C)c2c(=O)ccc3c(c12)OC(N)=C(C#N)C3c1ccc(F)cc1` (configuration not stated), the cell number change was -19.2%. The AC50 under setting [1] was 7.31 µM [falling, single point].
`COc1ccc(-c2nnc(SCC(=O)c3cccs3)o2)cc1`: the cell number change is -6.53%. The AC50 under setting [1] was 1.16 µM [rising, full curve, poor fit].
On to `COc1cc(NS(=O)(=O)c2ccc(N/C=C\C(=O)c3ccc(OC)c(OC)c3)cc2)nc(OC)n1`, for which the cell number change was 6.16%. The concentration at half-maximal activity (AC50) under setting [1] was 2.91 µM [rising, partial curve].
As for `CC1(C)CC(C2N3CC4(C)CN2CC(C)(C3)C4=O)CCO1` (configuration not stated), the cell number change is -9.15%. For the same compound, the concentration at half-maximal activity (AC50) under setting [2] is 0.103 µM [falling, full curve, poor fit]. The AC50 under setting [1] is 32.6 µM [falling, single point].
For `c1ccc(-c2ncc3c(ccc4ccccc43)n2)cc1`, the cell number change worked out at 42.1%. Besides, the AC50 under setting [2] was 32.6 µM [rising, partial curve, poor fit].
As to `S=C(NCc1cccs1)Nc1ccccc1Cl`, the cell number change was -11.5%.
`c1coc(CN2CN=C(Nc3nc4ccccc4s3)NC2)c1`: the cell number change was 24.4%. For the same compound, under setting [1], the AC50 is 6.51 µM [falling, single point].
`O=C(NCc1ccc(Cl)cc1)C1CCCN(C(=O)c2ccc(Cl)cc2)C1` (configuration not stated): the cell number change was -13%.
Consider `C#CCNc1nc(C)nc2c1nnn2Cc1ccccc1F`, for which the cell number change was -9.29%. The AC50 under setting [1] is 0.731 µM [rising, partial curve].
Consider `COc1ccccc1C(=O)NC(CCSC)C(=O)NCc1ccncc1` (configuration not stated), for which the cell number change was determined as 11%. For the same compound, the AC50 under setting [1] is 1.64 µM [rising, partial curve].
Turning to `CCOc1ccc(NC(=O)c2cccc3c2C(=O)N(CCOC)C3)cc1`, the AC50 runs as follows: under setting [2], 1.84 µM [rising, partial curve]; under setting [1], 0.58 µM [rising, single point].
On to `O=C1/C(=C/c2c[nH]c3ccccc23)CCC/C1=C\c1c[nH]c2ccccc12`, for which the cell number change is -51.8%. In addition, the AC50 under setting [2] is 32.6 µM [falling, single point]. Also, the AC50 under setting [1] is 0.58 µM [rising, partial curve, poor fit].
In the case of `COCCNC(=S)NNC(=O)CSCc1ccc(Cl)cc1Cl`, the cell number change came to 19.8%.
With `Cc1cc(=O)oc2cc(OC(C)C(=O)NCCCN3CCCC3=O)c(Cl)cc12` (configuration not stated), the cell number change turned out to be 6.19%. Also, the concentration at half-maximal activity (AC50) under setting [1] was 3.26 µM [rising, full curve].
As for `O=C1OC(Nc2nc(-c3ccc(F)cc3)cs2)c2ccccc21` (configuration not stated), under setting [1], the AC50 was 0.58 µM [rising, single point].
With `COc1ccc(S(=O)(=O)N2CCCCCC2)cc1C(=O)N(C)Cc1c(F)cccc1Cl`, the cell number change is -12.8%. For the same compound, under setting [1], the half-maximal activity concentration (AC50) was 29.1 µM [rising, single point].
In the case of `Fc1ccccc1/C=N/Nc1nc(N2CCCCC2)nc(N2CCCCC2)n1`, the cell number change is -8.73%.
For the compound `Cc1cccc(C(=O)OCC(=O)Nc2ccc3c(c2)OCCO3)c1`, the cell number change amounted to 19%. Also, the AC50 under setting [1] was 0.0517 µM [rising, full curve, poor fit].
For `CNS(=O)(=O)c1cccc(C(=O)OCC(=O)/C=C2/N(C)c3ccccc3C2(C)C)c1`, the AC50 reads like this: under setting [2], 1.46 µM [rising, partial curve]; under setting [1], 4.11 µM [falling, single point].
With `Cc1ccc2oc(=O)c3cc(C(=O)NCCN4CCc5ccccc5C4)sc3c2c1`, the cell number change is 54.7%. The AC50 under setting [2] was 29.1 µM [rising, single point]. For the same compound, the AC50 under setting [1] is 3.66 µM [rising, partial curve, poor fit].
